Measurements reported in PubChem BioAssay AID504784 (Drosophila RNAi Screening Center, 2011)
In all, the deposit lists about 17,000 reagents; below is a random part of those that have a named target and a result. 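Each column is one replicate's B-score; the combined score over replicates was not deposited, so single values may mislead.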 Names joined by + are all predicted targets of the reagent. Further read-outs or replicates are left out here.

Screen: 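Search for regulators of lipid droplet storage in oleate-fed fly cells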 (primary screen)
System: Drosophila Kc167 embryonic cells
Knock-down reagent: long dsRNA against Drosophila genes, about 250 ng dsRNA per well
Time to read-out: 4 days
Challenge: cells fed 400 µM oleic acid bound to BSA
Read-out: 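Microscope images give a droplet-to-nucleus area ratio, taken as log and converted to a screen-wide B-score; higher values mean greater lipid storage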
Direction: droplet/nuclear area B-score: higher = more stored lipid (overstorage)

droplet/nuclear area B-score, replicate 1, by gene knocked down and reagent
IP3K1: DRSC02734 -0.261
CG33159: DRSC08199 -0.218
Sema1b: DRSC07550 2.5
CG5676: DRSC02875 -0.447
Spn38F: DRSC03616 -0.87
Hibch: DRSC15705 0.147
CG5815: DRSC14135 0.194
CG31267: DRSC15748 0.14
nclb: DRSC07009 1.96
RecQ5: DRSC11266 0.241
Hexim: DRSC15490 -0.0118
MRG15: DRSC16731 0.322
CG9399: DRSC16488 -2.03
CG34398: DRSC01052 -0.365; DRSC02510 -0.15; DRSC02511 -0.509; DRSC03228 -1.16; DRSC23293 0.284
CG5787: DRSC02895 -2.46
CG7381: DRSC16238 -0.0173
Hex-t2: DRSC22517 0.922
pn: DRSC18822 0.714
Lsp1gamma: DRSC08672 -0.0723
na: DRSC19639 0.035
su(Hw): DRSC17074 -0.401
CG5388: DRSC15789 0.902
ORMDL: DRSC11737 0.392
CG8950: DRSC07300 0.104
CG7115: DRSC02000 0.368
Grik: DRSC15846 -1.01; DRSC15847 -0.962
alpha-Man-IIb: DRSC16898 -0.137
CG32814: DRSC17670 -2.92
RhoGAP68F: DRSC10717 1.45
CG18304: DRSC02664 -1.13
egl: DRSC04682 1.3
CG11374: DRSC00306 -1.36
Tengl2: DRSC21968 4.26

11 neighbouring records from above:
droplet/nuclear area B-score, replicate 1, by gene knocked down and reagent
CG5676: DRSC02875 -0.447
Spn38F: DRSC03616 -0.87
Hibch: DRSC15705 0.147
CG5815: DRSC14135 0.194
CG31267: DRSC15748 0.14
nclb: DRSC07009 1.96
RecQ5: DRSC11266 0.241
Hexim: DRSC15490 -0.0118
MRG15: DRSC16731 0.322
CG9399: DRSC16488 -2.03
CG34398: DRSC01052 -0.365

The results go on.
droplet/nuclear area B-score, replicate 1, by gene knocked down and reagent
HemK2 + Snapin: DRSC00736 -1.13; DRSC00737 -1.11
SelG: DRSC19808 -0.507
Cyp4ae1: DRSC18455 0.853
Eo: DRSC20187 0.996
Ist1: DRSC09697 0.218
CG13800 (retired record): DRSC08334 0.434
NAAT1: DRSC18300 0.947
CG13984: DRSC02316 -0.076
Cap-H2: DRSC14908 0.00357
CG6805: DRSC07011 0.0776
Axud1: DRSC00270 -0.997
Neu2: DRSC11819 -0.336
CG42527 (retired record) + Hr4: DRSC18495 1.37; DRSC22269 -0.333; DRSC22677 -3.29; DRSC23080 -1.07; DRSC23251 -0.676
CG3581: DRSC15499 1.03
bru1: DRSC01234 -3.08; DRSC01236 -0.406; DRSC01237 0.8; DRSC01238 -3.35; DRSC03485 -2.87
Hou: DRSC20001 2.66; DRSC22347 5.74
cg: DRSC07650 -0.562; DRSC23142 -1.35
CG7650: DRSC10898 -2.27
CG14325: DRSC14804 2.34
ScsbetaG: DRSC11294 1.64
CG8353: DRSC03084 -0.394
ninaG: DRSC16102 -0.109
Pop2: DRSC10537 3.84
CG14635: DRSC17945 -0.631
Nop56: DRSC14699 -1.35
lncRNA:CR32661: DRSC19794 -0.614
CG4066: DRSC15541 0.675
Oatp26F: DRSC02149 0.036; DRSC02272 -0.101; DRSC02695 -0.492
CG2246: DRSC15433 -1.32
Sod2: DRSC07554 -2.14
CG30339: DRSC05168 0.958
Sap-r: DRSC16849 -0.278; DRSC21916 1.38
